Laboratory results: PubChem BioAssay AID2551 (National Center for Advancing Translational Sciences (NCATS), 2010)
Screen size: about 310,000 compounds; about 17,000 (5.5%) were called active. This list was built around the results that the source calls inconclusive (neither active nor inactive); the mix of calls is not that of the screen. The call rests on the fitted dose curve; in most records, active means well fitted inhibition curve with a large enough effect; inconclusive means small, poorly fitted or top-dose-only effect, or effect the other way; inactive means no such curve, though single readings can be large or run the other way. A potency beside an inconclusive call is a rough fit, not a confirmed value.

Amino acid sequences for entries named in this document (tags omitted). A change or cut given only in a name is not applied to a line headed by its entry.
UniProt P51450: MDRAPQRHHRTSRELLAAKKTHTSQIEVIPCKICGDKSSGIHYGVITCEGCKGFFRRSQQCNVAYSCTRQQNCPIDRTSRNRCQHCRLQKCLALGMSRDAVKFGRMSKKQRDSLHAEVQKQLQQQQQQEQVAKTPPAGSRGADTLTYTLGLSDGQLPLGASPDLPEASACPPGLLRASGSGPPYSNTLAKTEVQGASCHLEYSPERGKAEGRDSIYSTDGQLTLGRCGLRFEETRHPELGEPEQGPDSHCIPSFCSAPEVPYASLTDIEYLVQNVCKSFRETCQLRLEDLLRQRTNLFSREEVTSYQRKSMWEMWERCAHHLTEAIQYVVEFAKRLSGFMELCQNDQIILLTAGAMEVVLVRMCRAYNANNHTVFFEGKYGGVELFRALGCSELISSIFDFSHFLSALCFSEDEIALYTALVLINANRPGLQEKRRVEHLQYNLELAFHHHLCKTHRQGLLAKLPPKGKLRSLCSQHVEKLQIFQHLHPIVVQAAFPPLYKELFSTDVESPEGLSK

target: Nuclear receptor ROR-gamma (Mus musculus) (UniProt P51450); assay: qHTS for inhibitors of ROR gamma transcriptional activity; settings: Drosophila S2 Gal4-RORgamma UAS-luciferase reporter, 20 h; series mostly up to 53.6 µM; further: nearly all actives have a fitted effect of over 60% in size
Method in brief: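 A Gal4/UAS one-hybrid system in insect cells: metallothionein-promoter Gal4–ROR gamma fusion plus Photinus luciferase reporter. Copper sulfate 700 uM final, 20 hr ambient incubation, luminescent detection after 10 min with reagent.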
Potency means the concentration at half of the fitted maximal effect.

Compound	Potency
CCOc1cc(N2CCOCC2)c(OCC)cc1NC(=O)c1ccccc1	inactive
CCOc1ccc(C2=NNC(c3cccs3)=Nc3ccc(OCC)cc32)cc1	inconclusive: 11.2 µM [activator, single point]
COc1cc(/C=C/C(=O)NC2CCCCC2)cc(OC)c1OC	inconclusive: 15.8 µM [activator, partial curve]
CCCCC[n+]1ccn(C2=C([O-])c3ccccc3C(=O)/C2=N\S(=O)(=O)c2ccccc2)c1	inconclusive: 11.2 µM [inhibitor, partial curve]
NS(=O)(=O)c1ccc(Nc2c([N+](=O)[O-])cncc2[N+](=O)[O-])cc1	inconclusive: 35.5 µM [inhibitor, single point]
O=C(Nc1ccc(F)cc1)c1cc2ccccc2o1	inconclusive: 17.8 µM [activator, single point]
C/C(=N\NC(=O)CSc1nc2ccccc2o1)c1ccc(O)cc1	active: 11.2 µM
CCC(Oc1cc(Cl)ccc1Cl)C(=O)N1CCCN(C)CC1 (stereo not given)	inactive
COc1ccc(/C=C2\SC(=S)N(CCC(=O)Nc3cccc(O)c3)C2=O)cc1	inconclusive: 31.6 µM [activator, single point]
O=C1c2ccccc2C(=O)C1c1ccc(Cl)cc1	inactive
Cc1ccc2nc(/C(C#N)=N/O)[nH]c2c1	inconclusive: 0.1 µM [inhibitor, full curve]
CCCC(=O)Nc1nnc(-c2ccco2)s1	inconclusive: 2 µM [activator, partial curve]
O=C(Nc1ccc(Cl)cc1)c1cccc(S(=O)(=O)Nc2ccccn2)c1	inconclusive: 17.8 µM [activator, partial curve]
O=C(NCCCCc1ccccc1)C12CN(Cc3ccccc3)CC1C(c1ccc([N+](=O)[O-])cc1)=NO2 (stereo not given)	inconclusive: 3.55 µM [activator, single point]
COc1ccc(OC)c(NC(=S)NCCCN2CCOCC2)c1	inactive
CC(C)NC(=O)c1ccc2c3n(nc2c1)-c1ccccc1CO3	active: 3.98 µM
CCOc1ccccc1C1CC(c2cccc(NS(C)(=O)=O)c2)=NN1C(=O)c1ccccc1 (stereo not given)	inconclusive: 22.4 µM [activator, partial curve, poor fit]
Cc1ccc(Oc2cc(NC(=O)CCCn3nc(C)c([N+](=O)[O-])c3C)cc([N+](=O)[O-])c2)cc1	inconclusive: 0.891 µM [inhibitor, single point]
Cc1ccc(Nc2nc(N)nc(CN3CCCCCC3)n2)cc1	inactive
O=C1c2ccccc2NC(c2cccc(Cl)c2)N1N=C1CCCCCC1 (stereo not given)	inactive
COc1cc(C(=S)N2CCOCC2)ccc1OC(=O)c1ccc(Br)cc1	inconclusive: 20 µM [activator, single point]
CC(=O)c1c(C)[nH]c(C2=NNC(=NC(C)(C)C)SC2)c1C	inconclusive: 35.5 µM [inhibitor, single point]
OC(COCC(F)(F)C(F)(F)C(F)(F)C(F)F)Cn1c2ccc(Cl)cc2c2cc(Cl)ccc21 (stereo not given)	inconclusive: 35.5 µM [inhibitor, single point]
Cc1ccc2c(C)ccc(O)c2n1	active: 11.2 µM
Cc1ccnc(SCC(=O)c2cc3ccccc3o2)n1	inconclusive: 1.41 µM [activator, full curve, poor fit]

Compound	Potency
Cc1cc(C(=O)N/N=C/c2ccc(O)c(O)c2O)c(C)n1-c1ccccc1	inconclusive: 15.8 µM [inhibitor, single point]
O=C1NC(=S)S/C1=C\C=C\c1ccc([N+](=O)[O-])o1	active: 5.62 µM
COc1ccc2c(c1)C(C)=CC(C)(C)N2S(=O)(=O)c1ccc(Br)cc1	inactive
CC(C)(C)S(=O)(=O)c1ccc2nc3c(n2c1)CCCC3	inactive
COCCNC(=O)c1cc(S(=O)(=O)N2CCOCC2)ccc1SCc1cccc(OC)c1OC	inactive
O=C(CN1CCN(c2ccccc2F)CC1)c1c[nH]c2ccc(F)cc12	inactive
CNC(=S)N/N=C/c1cn(CCOc2ccc(OC)cc2)c2ccccc12	active: 2.24 µM
O=C/C(=C\Nc1ccc(Cl)cn1)c1nc2cc(Cl)ccc2o1	inconclusive: 12.6 µM [inhibitor, partial curve]
CNC(=S)N/N=C/c1ccc(N2CCOCC2)s1	active: 1.26 µM
CSc1sc2ccccc2[n+]1CCCS(=O)(=O)[O-]	inactive
Cc1cc(C)n(CCN(C)Cc2nc(Cc3ccccc3F)no2)n1	active: 11.2 µM
O=C(CSc1nnc(CNC(=O)c2ccccc2F)o1)c1ccc(Cl)cc1	inconclusive: 17.8 µM [inhibitor, single point]
Cc1ccc(C(=O)CSc2ncnc3sc4c(c23)CCCC4)cc1	inconclusive: 17.8 µM [inhibitor, single point]
C/C(CC(=O)Nc1cc(C)ccn1)=N\NC(=O)COc1cccc(C)c1	inconclusive: 5.62 µM [inhibitor, single point]
COc1ccc(CN(C)CC(=O)Nc2cc3oc4ccccc4c3cc2OC)c(OC)c1	inconclusive: 7.08 µM [activator, partial curve]
COc1ccc(OC)c(C2C(C(=O)c3ccccc3)=C(C)Nc3nc4ccccc4n32)c1 (stereo not given)	active: 7.08 µM
CC(=O)O[C@]1(C(C)=O)CC[C@H]2[C@@H]3C=C(Cl)C4=CC(=O)[C@@H]5C[C@@H]5[C@]4(C)[C@H]3CC[C@@]21C	inconclusive: 1.41 µM [inhibitor, partial curve]
Cc1ccc(-n2nc3c(=O)n(C(C)C(=O)NCCc4cccs4)nc(C)c3c2C)cc1 (stereo not given)	inconclusive: 11.2 µM [activator, partial curve]
CCOC(=O)C(Sc1nn(C)c(=S)s1)C(C)=O (stereo not given)	inactive
Cc1ccc(OC(=O)c2sc(Cl)nc2C)cc1C	inconclusive: 35.5 µM [activator, single point]
CC(C)Cn1c(Cc2ccccc2)n[nH]c1=S	active: 4.47 µM
CC(=O)Nc1ccc(Nc2nc(-c3sc(C)nc3C)cs2)cc1	inconclusive: 6.31 µM [activator, full curve]
O=C(/C=C/c1ccco1)N(Cc1ccc(F)cc1)C1CCS(=O)(=O)C1 (stereo not given)	inactive
Cc1cccc(C)c1Nc1c(-c2ccc(N3CCOCC3)cc2)nc2ncccn12	inconclusive: 11.2 µM [activator, partial curve, poor fit]
CC(=O)c1ccc(NS(=O)(=O)c2ccc(C(C)(C)C)cc2)cc1	inconclusive: 35.5 µM [activator, single point]

Compound	Potency
CN(C)C(=S)Nc1cccc(F)c1	inactive
Cc1cccc(NC(=O)c2nc[nH]c2C(=O)N[C@@H](CC(C)C)C(=O)OC(C)(C)C)c1	active: 5.62 µM
CCc1ccc(S(=O)(=O)NCc2csc(C)n2)s1	inconclusive: 7.94 µM [inhibitor, partial curve, poor fit]
CSc1nsc(SC)c1NC(=O)OCCc1ccccn1	inactive
CNC(=S)N(CCCN(C)C)Cc1cc2cc3c(cc2[nH]c1=O)OCCO3	inactive
CCc1ccc(C2=NN(S(C)(=O)=O)C(c3cccs3)C2)cc1 (stereo not given)	inactive
CCOc1ccc(NC(=O)Nc2ccc(Cc3ccncc3)cc2)cc1	inactive
c1ccc(C2=Nc3ccccc3SC2c2nc3ccccc3[nH]2)cc1 (stereo not given)	inconclusive: 35.5 µM [inhibitor, single point]
CN(C)CCCN(C(=O)c1ccc(C(=O)c2ccccc2)cc1)c1nc2cc3c(cc2s1)OCO3	inconclusive: 35.5 µM [inhibitor, single point]
COc1cc(OC)cc(C(=O)NC(C)c2ccc(Br)cc2)c1 (stereo not given)	inactive
S=c1[nH]nc(Cc2noc3ccccc23)n1-c1ccc(Cl)cc1	inconclusive: 5.62 µM [inhibitor, partial curve]
CCOC(=O)Nc1ccc(C(=O)/C=C/c2ccccc2)cc1	active: 7.08 µM
Cc1nn(-c2ccccc2)c2c1C1(C(=O)Nc3ccccc31)N1C(=N2)Sc2ccccc21 (stereo not given)	inconclusive: 14.1 µM [activator, partial curve]
O=C(/C=C/Nc1cccc(C(F)(F)F)c1)c1ccco1	inconclusive: 7.94 µM [activator, partial curve]
CCOC(=O)c1c(NC(=O)CCl)sc(CN(C)C)c1-c1ccccc1	inconclusive: 22.4 µM [inhibitor, single point]
CN(CC1CCCCO1)C(=O)c1cc(COc2ccc(F)cc2Cl)on1 (stereo not given)	inconclusive: 35.5 µM [activator, single point]
O=C(NNC(=S)Nc1ccc(Br)cc1Cl)c1ccco1	inconclusive: 15.8 µM [inhibitor, single point]
COc1ccc2oc(=O)c(-c3nnc(NCc4ccco4)s3)cc2c1	inactive
CC(=O)C1=C(C)NC(SCSc2ccccc2)=C(C#N)C1c1cccnc1 (stereo not given)	inconclusive: 0.126 µM [inhibitor, full curve, poor fit]
C[C@H]1CN(C2CCCCC2)C(=O)[C@@H]1CC(=O)NCc1ccccc1	inactive
CCn1c(SCC(=O)N2CCCC2)nc2c(c1=O)SCC2	inconclusive: 0.0063 µM [inhibitor, full curve, poor fit]
Cn1c(-c2ccco2)nc2cc3ccccc3cc21	active: 6.31 µM
CSc1nnc(NC(=O)c2ccc3c(c2)OCO3)s1	active: 2.51 µM
Cc1cccn2c(=O)c3cc(C(=O)NCCC4=CCCCC4)n(C)c3nc12	inactive
CCN(CC)S(=O)(=O)c1cccc(NC(=O)COC(=O)/C=C/c2cccs2)c1	inconclusive: 10 µM [activator, single point]

Single entries from above:
Entry for CN(C)CCCN(C(=O)c1ccc(C(=O)c2ccccc2)cc1)c1nc2cc3c(cc2s1)OCO3 under Potency: inconclusive: 35.5 µM [inhibitor, single point]
Entry for CCOC(=O)Nc1ccc(C(=O)/C=C/c2ccccc2)cc1 under Potency: active: 7.08 µM
Entry for CC(=O)C1=C(C)NC(SCSc2ccccc2)=C(C#N)C1c1cccnc1 (stereo not given) under Potency: inconclusive: 0.126 µM [inhibitor, full curve, poor fit]
Entry for Cc1cccc(NC(=O)c2nc[nH]c2C(=O)N[C@@H](CC(C)C)C(=O)OC(C)(C)C)c1 under Potency: active: 5.62 µM
